Data: patent US12287322B2, “Composition for detecting hydrogen sulfide or measuring hydrogen sulfide concentration and composition comprising same as effective ingredient for diagnosing or imaging in vivo inflammation, tissues having hypoxic damage, or cancer” (SEOUL NATIONAL UNIVERSITY R&DB FOUNDATION, priority 2018, dated 2025)
Some results were stated once for a whole list of compounds, not compound by compound.

Assay: Reaction of ^99mTc-alpha-hydroxy acid with NaHS, insoluble substances by ITLC
Conditions: 0.4 mM NaHS in 0.2 M sodium phosphate buffer pH 7.4, 37° C., 15 minutes; radioactivity at origin, ITLC saline
Description: Then, ITLC was developed with physiological saline to determine the percentage of the radioactivity remaining at the origin.

^99mTc-glucarate
percentage of insoluble substances produced after reaction with NaHS: 37.0˜87.8%
